Data on 104 sequences can be found in PubChem BioAssay AID1347423 (Functional Genomics Laboratory (NCATS/FGL), 2020).

The campaign covered roughly 52,000 sequences. About 210 (0.4%) were called active.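 How the source made its calls: active means gene whose silencing raises cell survival under the drug, median off-target-corrected z-score across its silencing RNAs 2 or more; inactive means the rest.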 This is one part of the list.

A short description of the test: Resistance to Poly (ADP-Ribose) Polymerase inhibitor: Gene Identification via Genome-wide siRNA Screen. The following applies: mouse BRCA2 R2336H ES cells, olaparib, CellTiter-Glo viability; stronger effect = higher value. The essentials:
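Genome-wide siRNA screen (3 siRNAs/gene, 20 nM) in mouse ES cells carrying hypomorphic BRCA2 R2336H; olaparib 500 nM added 48 h post-transfection, CellTiter-Glo viability 72 h later. Normalized to plate-median negative control; MAD z-scores, gene median, seed-adjusted.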
(Cellular ATP, detected with luciferase, serves as a proxy for viable cell number.)
For GCUUCUCCGCUUAUUGGUCTT against Tscot, the z-score is inactive: -0.494. For the sequence “GGUACACUUUCAGAAAUGUTT against 3110037I16Rik”, the z-score is inactive: 0.544. GGGUCUCAAAGCAGUUUUUTT against Rhoj: the z-score was inactive: 1.66. As to GUAUGAUCUUUAAACUCCATT against Ppp1r13l, the z-score is inactive: -0.499. For CGUCUUACACGGUUCAAAGTT against Tbc1d10, the z-score was inactive: -0.579. Turning to “GGAAGAAAGUGAAGAAGAGTT against C230004F18Rik”, the z-score was inactive: -1.93. Consider GGCGUAUCAUUUUAUCGACTT against Phlda3, for which the z-score was inactive: 0.488. For GGAGCAGAUGAGAUCCAAGTT against Cdc42se1, the z-score was inactive: -2.26.

Regarding GCGUUGAAACCACUUUGUATT against Tmprss11c, the z-score was inactive: -0.969. As for GGACGCGGGAAAAAUGUUCTT against Hnrpab, the z-score is inactive: 1.69. For the sequence GGGAUCUUUUACUCAUACUTT against Olfr862, the z-score was inactive: -0.0127. In the case of GCCUAGACAAAGUGAUGGATT against Sybl1 it was inactive: -0.418. For GGAUGAGUUUGACAAGCUGTT against Rhou the value was inactive: -1.67. For the sequence GGGUCACUGAAGGUACUCUTT against Igsf7, the z-score was inactive: 1.7.

Turning to GGUCAAUGAGUUAGCAAUATT against Olfr1143, the z-score was inactive: 0.122. With GGAGACACUGAAUGUGACATT against Ttyh1, the z-score is inactive: 0.236. Consider GGCCCUAAUAGCAACAGGATT against Ubqln2, for which the z-score was inactive: 0.104. “GGACAAUGUGAGUUUCCUGTT against 5330439B14Rik”: the z-score is inactive: -1.38. Consider GGGCAACUUUGAGUUCGAATT against Dok2, for which the z-score was inactive: -0.0843.

GCAGAUAAGAGUUCAAAUCTT against Oxa1l: the z-score is inactive: 0.274. Consider CGUGGUUCUUCGAGUAGAUTT against Sfrs5, for which the z-score is inactive: -0.907. With GUUUGAGACGGAGCAGAGCTT against Krt1-14, the z-score is inactive: 0.467. As for GGAGAAGGAUGAAGACGGATT against Map1lc3a, the z-score is inactive: -0.115. Take “GGUUCUUUUGAGCUUUAUGTT against 1810007P19Rik”: the z-score was inactive: 0.384. For “AUAUAGACCUCGUUACGUATT against 6330571D19Rik” the value was inactive: -0.727. Regarding GGAUUUAGCCAAAGAAAAGTT against Tbc1d8, the z-score was inactive: 0.237. In the case of GGAGAAAGCACUCUAUCUCTT against Abcc10 it was inactive: 0.385; in that of GGACUUUGAGAAUGUGGAUTT against Xylt1, inactive: -0.792; in that of “CGAUUUCACAAAAACAUGATT against 1110059P08Rik”, inactive: 0.959. With GCAACAGUGAAAUAGCACATT against Ccm1, the z-score was inactive: 0.0695. For the sequence GCCUACAGAGUGAUCAACATT against Fxyd5, the z-score was inactive: -0.216. Take GCCGGACUUCCCAUCUGUUTT against Srebf1: the z-score was inactive: -0.523. As for GGAUUGUAGUCGUUUCUUCTT against Rdh14, the z-score was inactive: -0.511.

For the sequence GCAUCCUGAGCAGUGAUAUTT against Taar7b, the z-score was inactive: -0.718. Consider GGCCUAUCUGACCUACACCTT against Wnt8a, for which the z-score is inactive: 1.32. For “GGAAGUUUAGAGCAUGCCATT against 2410001H17Rik”, the z-score was inactive: -0.114. Take “CCACCGGAUCGAAGACAGUTT against 5730590C14Rik”: the z-score was inactive: 1.04. Consider GGCAGAUUCCAGGCUUCACTT against Olfr513, for which the z-score was inactive: -0.0146.

Consider CCCGCCAGAUGAUGCAUAATT against Unc5cl, for which the z-score is inactive: -0.383. In the case of “GGCCUCCUGAUUUGAUUGUTT against 2300002G24Rik” it was inactive: 0.76; in that of CCUUUCCUACUCUGUACCCTT against Abcg1, inactive: -0.697. For the sequence “CGAAUAGUUCCAGAAGACGTT against F730031O20Rik”, the z-score is inactive: -0.427. With GGUAGCUGACAAAGAGUAATT against Sp5, the z-score was inactive: -0.51. Take GGAUAAAACUGGUUACUCUTT against Gpr110: the z-score is inactive: 0.32. Consider CCUUUCAAUUGGCUCUGAATT against Sumo1, for which the z-score is inactive: -0.155.

In the case of GCCAAGGACUCAGUGAAUGTT against Iqsec2, the z-score is inactive: -0.88. Take CCCUAAUUCAUGGACCUUGTT against Kremen2: the z-score was inactive: -2.17.

With GAUGUUCUGCAUCUACUUUTT against Olfr545, the z-score is inactive: -0.106. For CCCAUCUGUUUGAGUGUAUTT against Ms4a1 the value was inactive: -1.62; for GGUGAACCUCCAGAACAAUTT against Bcap31, inactive: 0.727; for GGAAAUAAACCCUUGAUAUTT against Rhof, inactive: -1.93. For the sequence GCCCUCGAGAAGCUCUCAUTT against Zfp202, the z-score is inactive: -1.28. For GGUCACAGACCAAGCUUAUTT against Mmp15 the value was inactive: 1.15; for GGAGUUCAGGAAAAUUCUUTT against Csdufd1, inactive: 1.97. Consider GGACAUAUAGCUGAUUUCUTT against Ctdsp2, for which the z-score is inactive: 1.04.

Turning to GCUGGAAUACGUUGAUAUATT against Kcnab3, the z-score was inactive: -0.643. In the case of GGAUAAGACCAUCAGAUUATT against Wdr31 it was inactive: 0.514; in that of GGACUUAUUGCUUCAGUCUTT against Resp18, inactive: -0.266.

For GGCAGCUCCUUCACAUUUUTT against Net1, the z-score is inactive: -0.0439. Turning to GGGUCACUACAUUUGACACTT against Sh3glb2, the z-score is inactive: -0.464. “GGGUUAGCCAGAGCUCUAATT against B230342M21Rik”: the z-score is inactive: -2.1.

As to GGUCAAUGUGUUUAUGUGATT against Nxt2, the z-score was inactive: 1.09.

In the case of GGUUUUCCAGAGAAACCACTT against Rhox7, the z-score was inactive: -0.0887. On to CGAAGUGAGGCAAAUCGAATT against Stx18, for which the z-score was inactive: 0.185. For GGCGAGAUUAAAAAAUGGUTT against Zhx1, the z-score was inactive: 0.239.

For GCAAAUUACCACAUUGUCUTT against Adam12, the z-score was inactive: 0.869. For GGACAUGAAUGCAUUUUUATT against Klhl8 the value was inactive: 0.251; for “GCUUGCCUGACCUGAAACATT against 9430083G14Rik”, inactive: -2.66.

For GGUUCAGUUGAUGCUUUAUTT against Lrba, the z-score is inactive: 0.759.

Consider “GGAGUAUGGGAUAAUUCUATT against C630025C03”, for which the z-score is inactive: -0.812.

As for “GGAUCAGGAGGCCAUCACATT against 4933421I07Rik”, the z-score was inactive: -2.59.

CGGGUUGUACCUGAGUCUGTT against Tmpit: the z-score is inactive: -0.144. “CCAAGACCCUAAUAUCUAUTT against 2610204L23Rik”: the z-score was inactive: 0.739. For the sequence CGGCAACAAAUUCUACUCUTT against Ambp, the z-score is inactive: 0.195. As for GGAGUUUUCAGCAACAAAUTT against Fgf5, the z-score was inactive: 0.296.

Take GCAUGAUGCAUACAAAGGCTT against Etfa: the z-score was inactive: -0.875. For GGAGCUAGCCAACUUCGAUTT against Lisch7 the value was inactive: 0.778; for GGUUUGUAUUGUAACUUUGTT against Abi1, inactive: -0.0984; for GGAAAAUCCCUCUUUGGCUTT against Sez6l2, inactive: 0.73. “CCCAGGAUAUAAUUCAACUTT against 1300003K24Rik”: the z-score is inactive: 1.38.

Consider CCUAGACGUGACUUAAUAUTT against Rabggtb, for which the z-score is inactive: 0.7. With GCCAUUUCCUACAAUGCUUTT against Olfr1443, the z-score was inactive: -0.402. For GGUACGAAGUCAAAGUGAATT against Dnmt3l, the z-score was inactive: 0.0858.

GGCAUGGUGGGACAUUUCUTT against Pla1a: the z-score was inactive: -1.98. GCAUUGAAGUCACCUCCACTT against Clcn2: the z-score was inactive: 0.659.

CCGAAAGGCUGGUACAUUCTT against Kin: the z-score is inactive: -1.77.

Take GGAAAAGCAACACAUCUAUTT against Chst7: the z-score is inactive: -0.488. For “GGCGAUGACAAGGAUCCUUTT against 1810044O22Rik” the value was inactive: 0.409; for GGAGUUUAUGAGGAACUCGTT against Zwint, inactive: 0.663. Regarding GGACAGUUAGAUGGAUUGUTT against Msc, the z-score is inactive: -0.314.

As to GGAGUUUGUUAACAGAGUATT against Pcyt1b, the z-score was inactive: -0.289.

Consider CGAGGUCGAUGGAUAAAGGTT against Scnm1, for which the z-score is inactive: 0.16. In the case of GCUGUGUAUAAACAUCCUATT against Dscr5, the z-score was inactive: 0.996. In the case of GCUAACAUUGUAAAUGCACTT against Dmrta1 it was inactive: 0.847; in that of CCUCGAAUUACGUAUGUUUTT against Fyn, inactive: 0.663; in that of GCAUAAAACACUAAGGAAATT against Csnk, inactive: -1.11. For “GCUUACUGUCCCUUAAGUUTT against A930005I04Rik” the value was inactive: -0.182; for CCAGUUGAAAUAUUGAGCATT against Mbnl3, inactive: 0.155; for GGCUACAGAAGGUGUUCAGTT against Klra22, inactive: -2.23. As to GGACAAGAAAAAGUCCAGATT against Dhx38, the z-score is inactive: 0.974.

Regarding AAGGAAGUCUGUCCAAGGUTT against Olfr192, the z-score was inactive: -1.41. On to GGUCAAAGAGUUCUGUGAATT against Ppp2r1a, for which the z-score is inactive: -1.45. Consider “GGAGGUGGAACAAAUAUUUTT against 0610009E20Rik”, for which the z-score was inactive: 0.371. For the sequence GCUAACCAUGUGACAAUAATT against Timm8a, the z-score is inactive: -0.132.
